Protein sequences, listed by entry. Tags and fused reporters are not part of them. Lines headed by an entry give the natural chain unless they say otherwise; changes in a name come on top.
UniProt P04062: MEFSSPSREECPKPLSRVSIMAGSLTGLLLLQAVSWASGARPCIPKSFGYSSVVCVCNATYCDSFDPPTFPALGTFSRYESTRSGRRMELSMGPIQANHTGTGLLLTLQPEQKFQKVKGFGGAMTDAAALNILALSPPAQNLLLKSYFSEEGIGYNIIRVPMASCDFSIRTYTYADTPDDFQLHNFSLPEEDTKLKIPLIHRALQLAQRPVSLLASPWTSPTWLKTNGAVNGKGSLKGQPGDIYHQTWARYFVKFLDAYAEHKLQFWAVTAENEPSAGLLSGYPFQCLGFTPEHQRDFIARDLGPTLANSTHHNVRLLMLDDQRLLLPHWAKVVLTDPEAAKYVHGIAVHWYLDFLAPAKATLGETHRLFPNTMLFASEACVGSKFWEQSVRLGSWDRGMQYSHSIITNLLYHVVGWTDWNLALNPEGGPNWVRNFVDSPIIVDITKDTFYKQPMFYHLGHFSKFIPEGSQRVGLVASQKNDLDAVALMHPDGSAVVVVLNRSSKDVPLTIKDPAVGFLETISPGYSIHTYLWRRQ

Inconclusive results, whose numbers are uncertain, are shown with a selection of clear calls. A potency beside an inconclusive call is a rough fit, not a confirmed value. Activity calls are given as the source filed them. Calls come from the whole dose curve; as a rule, active = well fitted inhibition curve with a large enough effect; inconclusive = small, poorly fitted or top-dose-only effect, or effect the other way; inactive = flat fitted curve, though single readings scatter.
These compounds were tested against Lysosomal acid glucosylceramidase (Homo sapiens) (UniProt P04062) (assay: qHTS Assay for Inhibitors and Activators of N370S glucocerebrosidase as a Potential Chaperone Treatment of Gaucher Disease: Activity in Non-Mutant Spleen Homogenate Using a Red Fluorescent Substrate). Settings: red fluorogenic substrate GCase activity; series mostly up to 50.2 µM; activity change, negative = inhibition: at the top concentration.
Excerpt: NIH Chemical Genomics Center [NCGC]
NIH Molecular Libraries Probe Production Centers Network [MLPCN]
Assay Submitter (PI): Wei Zheng
Glucocerebrosidase (GC) catalyzes the hydrolysis of beta-glucocerebroside to glucose and ceramide in lysosomes. Mutations in the glucocerebrosidase gene result in Gaucher disease, an autosomal recessive lysosomal storage disorder. Many of the mutations encountered in patients with Gaucher disease are missense alterations that may cause misfolding, decreased stability and/or mistrafficking of this lysosomal protein. […] These inhibitors include iminosugar analogs and three non-iminosugar inhibitors identified from a previous HTS of 62,000 compounds with the wild type recombinant enzyme. However, the enhancement of enzyme activity by the chaperone action of an enzyme inhibitor must be balanced against the direct inhibition of the enzyme. An enzyme activator could also function as a chaperone by binding to the enzyme and helping to correct its misfolding and mistrafficking. While activators for GC have not yet been identified, they may have better therapeutic potential than inhibitors. Therefore the discovery and development of chemical activators may provide a new strategy for the chaperone therapy.
We have optimized a new assay using N370S mutant GC derived from the spleen of a Gaucher patient. […] In addition, the MLPCN compound library has expanded, which increases the chance of finding new and better probes.
This confirmation assay tests for compound activity in spleen homogenate containing wildtype enzyme using an alternate resorufin-based substrate.
NCGC Assay Protocol Summary:
This is a fluorogenic enzyme assay with resorufin-beta-D-glucopyranoside as the substrate and wildtype glucocerebrosidase from human spleen homogenate as the enzyme preparation. Upon the hydrolysis of this fluorogenic substrate, the resulting product, […] which can be detected by a standard fluorescence plate reader. Data were normalized to the controls for basal activity (without enzyme) and 100% activity (with enzyme). The AC50 values were determined from concentration-response data modeled with the standard Hill equation.
Assay buffer: 50 mM citric acid (titrated with potassium phosphate to pH 5.0), 100 mM potassium chloride, 10 mM sodium chloride, 1 mM magnesium chloride, 0.01% Tween-20.
1536-well assay protocol:
(1) Add 2 ul/well of spleen homogenate (27 ug final)
(2) Add 23 nL compounds in DMSO solution. The final titration was 0.5 nM to 58 uM.
(3) Add 2 ul of substrate (1 mM final)
(4) Incubate at 37C for 40 min.
(5) Add 2 ul stop solution (1M NaOH and 1M Glycine mixture, pH 10)
(6) Detect the assay plate in a ViewLux plate reader (PerkinElmer) with Ex=365 nm and Em=440nm.
Keywords: Glucocerebrosidase, beta-glucosidase, Gaucher Disease, pharmacological chaperone, chaperone therapy, high throughput screening, glucocerebrosidase inhibitor, MLSMR, MLSCN, NIH Roadmap, qHTS and NCGC
With `O=S(=O)(c1ccc(F)cc1)N1CCN(c2nc(-c3cccc(Br)c3)nc3ccccc23)CC1` the “activity change, negative = inhibition” value was inactive: -2.28%. In the case of `OCCNc1nc(Nc2ccc(Cl)cc2)nc(N2CCCC2)n1`, the Potency is reported as inconclusive: 11.2 µM [inhibitor, full curve, poor fit]. With `O=S(=O)(c1ccc2c(c1)CCCC2)N1CCN(c2nc(-c3ccccc3)nc3ccccc23)CC1` the Potency was inconclusive: 3.98 µM [inhibitor, full curve]. In the case of `O=S(=O)(c1ccccc1)N1CCN(c2nc(-c3ccc(F)cc3)nc3cc(Cl)ccc23)CC1`, the “activity change, negative = inhibition” value is reported as inactive: 6.43%. With `CC(C)(C)c1ccc(S(=O)(=O)N2CCN(c3nc(-c4ccccc4)nc4ccccc34)CC2)cc1` the Potency was inconclusive: 7.08 µM [inhibitor, full curve]. In the case of `CCOc1ccc(N(CC(=O)Nc2ccc(C)cc2)S(=O)(=O)c2c(C)[nH]c(=O)[nH]c2=O)cc1`, the Potency is reported as inconclusive: 2.51 µM [inhibitor, full curve, poor fit]. With `COc1cccc(CN(C)c2nc(-c3cccs3)nc3ccccc23)c1` the Potency was active: 2 µM. `O=S(=O)(c1ccc2c(c1)CCC2)N1CCN(c2nc(-c3ccccc3)nc3ccccc23)CC1` was tested, and the Potency was inconclusive: 15.8 µM [inhibitor, partial curve].

Source: PubChem BioAssay AID2588 (National Center for Advancing Translational Sciences (NCATS), 2010)
